Measurements: PMC7435865 (Molecules, 2020)
Strings that start with PEPTIDE1 are HELM notation: dots part the residues, brackets hold end groups and non-standard residues.

assay: general procedure: solution-phase peptide synthesis; DCC/HOSu; conditions: late stage modification step

Substance	step yield [%]
PEPTIDE1{Y.P.F.F.[NHN-CH-35CF3Ph]}$$$$V2.0	32
PEPTIDE1{Y.[dA].F.F.[NHN-CH-35CF3Ph]}$$$$V2.0	28
PEPTIDE1{Y.[dA].F.F.[NHNHCO-35CF3Ph]}$$$$V2.0	42
PEPTIDE1{Y.[dA].G.F.[NHNHCO-35CF3Ph]}$$$$V2.0	16
PEPTIDE1{Y.[dA].G.F.[NHNHCOCH2-35CF3Ph]}$$$$V2.0	22
PEPTIDE1{Y.[dA].G.F.[NHNHCONHN-CH-35CF3Ph]}$$$$V2.0	20
PEPTIDE1{Y.[dA].G.W.[NHN-CH-35CF3Ph]}$$$$V2.0	21
PEPTIDE1{Y.[dA].G.W.[NHNHCO-35CF3Ph]}$$$$V2.0	19
